Experimental data: publication PMC8212739 (Clinical and Translational Science, 2021)
pEC50: −log10 of the molar value.

What was measured:
Type in all cases: cell-based
PHHs in spheroids = experiment: LDH production, hepatotoxicant sensitivity, spheroids; conditions: Homo sapiens, 48 h, read-out: EC50, LDH production
[1] = tested on: PHHs in sandwich cultures; experiment: LDH production, hepatotoxicant sensitivity, sandwich cultures; conditions: Homo sapiens, 48 h, read-out: EC50, LDH production
PHHs in liver MPS [2] = experiment: LDH production, hepatotoxicant sensitivity, liver MPS; conditions: Homo sapiens, 48 h, read-out: EC50, LDH production
PHHs in liver MPS [3] = experiment: Albumin production, hepatotoxicant sensitivity, liver MPS; conditions: Homo sapiens, 48 h, read-out: EC50, albumin secretion

With `CC/C(=C(\c1ccccc1)c1ccc(OCCN(C)C)cc1)c1ccccc1` [Tamoxifen, tamoxifen] the pEC50 (PHHs in spheroids) was 4.74, the pEC50 [1] was 4.27 and the pEC50 (PHHs in liver MPS [2]) was 4.38. The pEC50 (PHHs in liver MPS [3]) was 4.42.
